1 substance from publication PMC10989685 can be followed below.

By UniProt entry, the sequences of proteins in these tests, tags left out. Residues count along the entry.
UniProt E9Q7X7, residues 29-1634: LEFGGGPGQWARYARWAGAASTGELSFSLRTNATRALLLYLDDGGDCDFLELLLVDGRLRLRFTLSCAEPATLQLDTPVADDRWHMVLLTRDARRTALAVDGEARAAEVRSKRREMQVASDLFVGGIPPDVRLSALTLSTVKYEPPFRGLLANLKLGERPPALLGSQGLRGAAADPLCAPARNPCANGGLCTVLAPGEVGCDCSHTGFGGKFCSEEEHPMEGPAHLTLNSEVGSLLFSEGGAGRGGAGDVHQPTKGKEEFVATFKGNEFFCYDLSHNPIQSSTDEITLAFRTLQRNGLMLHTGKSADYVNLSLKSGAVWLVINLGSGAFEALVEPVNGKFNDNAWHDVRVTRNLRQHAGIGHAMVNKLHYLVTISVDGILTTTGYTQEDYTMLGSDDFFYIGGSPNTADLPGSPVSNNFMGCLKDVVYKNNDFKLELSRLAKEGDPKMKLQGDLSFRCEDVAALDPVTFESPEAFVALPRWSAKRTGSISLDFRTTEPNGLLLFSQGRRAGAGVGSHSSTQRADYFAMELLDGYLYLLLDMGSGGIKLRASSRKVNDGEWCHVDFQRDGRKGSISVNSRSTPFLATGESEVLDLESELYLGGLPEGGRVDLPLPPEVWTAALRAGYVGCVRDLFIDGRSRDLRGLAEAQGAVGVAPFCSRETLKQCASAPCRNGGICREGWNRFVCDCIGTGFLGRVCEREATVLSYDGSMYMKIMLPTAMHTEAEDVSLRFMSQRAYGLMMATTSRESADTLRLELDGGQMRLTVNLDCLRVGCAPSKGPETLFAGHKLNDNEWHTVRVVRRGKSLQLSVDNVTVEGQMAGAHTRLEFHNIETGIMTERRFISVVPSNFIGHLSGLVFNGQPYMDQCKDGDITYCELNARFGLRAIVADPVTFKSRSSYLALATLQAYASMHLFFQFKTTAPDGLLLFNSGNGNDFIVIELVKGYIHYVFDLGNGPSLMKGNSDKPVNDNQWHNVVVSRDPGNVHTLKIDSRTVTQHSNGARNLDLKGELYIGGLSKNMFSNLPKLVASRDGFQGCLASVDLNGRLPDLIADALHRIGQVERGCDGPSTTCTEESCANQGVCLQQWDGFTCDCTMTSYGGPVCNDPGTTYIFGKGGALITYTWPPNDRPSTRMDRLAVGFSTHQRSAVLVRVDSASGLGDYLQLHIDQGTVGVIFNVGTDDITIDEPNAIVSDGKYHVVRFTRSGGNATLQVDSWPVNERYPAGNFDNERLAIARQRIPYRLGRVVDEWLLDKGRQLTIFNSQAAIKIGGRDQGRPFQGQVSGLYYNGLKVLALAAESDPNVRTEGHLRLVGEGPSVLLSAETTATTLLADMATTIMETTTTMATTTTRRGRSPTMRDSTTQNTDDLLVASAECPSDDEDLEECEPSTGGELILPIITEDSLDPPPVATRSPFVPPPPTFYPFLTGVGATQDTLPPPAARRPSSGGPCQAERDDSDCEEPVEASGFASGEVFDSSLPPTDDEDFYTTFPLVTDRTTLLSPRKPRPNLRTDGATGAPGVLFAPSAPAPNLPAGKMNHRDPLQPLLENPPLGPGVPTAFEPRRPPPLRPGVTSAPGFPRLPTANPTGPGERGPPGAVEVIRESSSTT

Positions count from the first letter of the chain named. No constants are given. Whether binding was seen depends on the method and setting. Some binding calls cover weakened binding; strength is not graded here. Sequences can lack the tags named with a protein.

Common to all, as to assay: in situ cell surface binding assay (fluorescence microscopy); HEK293T conditioned medium with Nrxn2α-Fc applied for 1 h at 4°C to COS7 cells expressing HA-tagged IgSF21 forms, in extracellular solution with 2 mM CaCl2, 1.3 mM MgCl2; bound Fc signal divided by surface HA signal and normalised to IgSF21 WT
One assay deals with T1, IgSF21-HA D76N (mouse) (UniProt Q7TNR6).
T1 sequence: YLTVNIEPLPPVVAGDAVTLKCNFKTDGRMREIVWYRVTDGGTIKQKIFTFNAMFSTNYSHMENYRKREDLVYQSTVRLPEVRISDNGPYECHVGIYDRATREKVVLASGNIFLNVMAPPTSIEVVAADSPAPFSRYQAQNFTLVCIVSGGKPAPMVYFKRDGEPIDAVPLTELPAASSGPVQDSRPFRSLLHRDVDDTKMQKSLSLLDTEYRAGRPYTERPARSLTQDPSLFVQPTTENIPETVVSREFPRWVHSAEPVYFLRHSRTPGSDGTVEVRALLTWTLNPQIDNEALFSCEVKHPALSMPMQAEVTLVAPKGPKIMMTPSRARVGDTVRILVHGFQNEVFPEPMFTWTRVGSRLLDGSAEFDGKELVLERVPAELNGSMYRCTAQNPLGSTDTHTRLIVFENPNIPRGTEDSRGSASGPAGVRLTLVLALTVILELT

Another assay has as its target T2, IgSF21-HA K45D (mouse) (UniProt Q7TNR6).
T2 sequence: T1 sequence with K21D, N52D

The next assay deals with T3, IgSF21-HA K45R (mouse) (UniProt Q7TNR6).
T3 sequence: T1 sequence with K21R, N52D

Consider “soluble Fc-tagged mouse Nrxn2α ectodomain (Nrxn2α-Fc) (from UniProt E9Q7X7 29-1634) (Fc fusion)”, for which the binding result with IgSF21-HA D76N (mouse) is on record as “no binding”; with IgSF21-HA K45D (mouse) it was “binds”; with IgSF21-HA K45R (mouse) it was “binds”.
